Data set [1] is described as follows: folding stability dG unfold from trypsin proteolysis; higher = more stable. In a few lines:
(§1)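 Mini-proteins designed to be under 80 residues and free of cysteine were carried in a PA-tagged cDNA display construct and digested with trypsin and with chymotrypsin. Each protease was applied at 11 threefold-diluted concentrations, alongside a no-protease condition, before sequencing. K50 came from Bayesian fitting of the sequencing counts, and unfolding free energy was obtained by comparing it with a sequence-predicted unfolded-state K50 and a shared folded-state K50, for each protease separately or for both together. Designs were retained only if their AlphaFold2 dimer inter-PAE exceeded 15.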

Data set [2] in a line: folding stability dG unfold (combined trypsin and chymotrypsin); higher = more stable. In a few lines:
as §1

The nature of data set [3]: folding stability dG unfold from chymotrypsin proteolysis; higher = more stable. In a few lines:
as §1

The values that follow come from the supplement of paper PMC12764529.

± gives the half width of the 95% confidence interval. The two proteases of the assay disagree for many of these sequences.

Regarding “SAGGSAGGSAGGVEIVIMFPRGMPPEQFAKMIAKWLRRQGLPPNVKVDIKIIPIDPDDMSAGGSAGGSAGGS [r10_746_TrROS]”, the “folding stability dG unfold” value in data set [1] is 2.82 ± 0.051 kcal/mol; in data set [2] it was 3.15 ± 0.18 kcal/mol; in data set [3], 3.35 ± 0.066 kcal/mol.

As to “SAGGSMTLRLRFRVRVRVRGRRPDGSLFEFELEVEIELEVEVEPPEPLPPLTPEEAAKIIGNPELVSAGGSA [r2_340_TrMRF]”, the entries for the “folding stability dG unfold” value in data set [1], in data set [2] and in data set [3] were 3.8 ± 0.11 kcal/mol, over 6 kcal/mol and 6.35 ± 0.39 kcal/mol, respectively.

Turning to “GYTITSEVEEFEDPNSDAKYTKVTIPVVDGDPEVAREAAEEIAKERFGPGATLDIKYDPETGTVTATFTVAS [r1_273_JUSTAS]”, the “folding stability dG unfold” value in data set [1] stood at 0.511 ± 0.026 kcal/mol; in data set [2], 0.563 ± 0.081 kcal/mol; in data set [3], 0.379 ± 0.1 kcal/mol.

With “SAGGSAGGSAGKKYKIKVEVNGKLFEVEVSEDVKPGDVIKIEVDGKIIEVPAKNVKVEKVSAGGSAGGSAGG [r11_247_TrROS_Hall]”, the “folding stability dG unfold” value in data set [1] worked out at 1.1 ± 0.067 kcal/mol; in data set [2] it was 2.82 ± 0.16 kcal/mol; in data set [3], 3.24 ± 0.12 kcal/mol.

Take “SAGGSAGGAKPPKTVTVKVEVTNADGETQTRTVTLTNLPKDLKPGDTVTLPETGQTARIVEITPSAGGSAGG [r6_560_TrROS_Hall]”: the “folding stability dG unfold” value came to 3.27 ± 0.078 kcal/mol in data set [1], 3.17 ± 0.1 kcal/mol in data set [2] and 3.02 ± 0.097 kcal/mol in data set [3].

For “SAGGSAGGSAQEIYFIANSPEDIRNELEKLFPNFKIDIEPIERDENGYVMFKVTIEIPPGMKSAGGSAGGSA [r18_464_TrROS]”, the “folding stability dG unfold” value in data set [1] stood at 1.19 ± 0.051 kcal/mol; in data set [2], 3.16 ± 0.15 kcal/mol; in data set [3] it was 3.72 ± 0.04 kcal/mol.

For the sequence “SAGGSAGGKKIKVKEIEIEINGKKYKITIYPDGTIKIEFEDGSTITIKITNKDGSEITIEIKAPSAGGSAGG [r6_239_TrROS_Hall]”, the “folding stability dG unfold” value in data set [1] came to 1.78 ± 0.22 kcal/mol; in data set [2], 3.33 ± 0.46 kcal/mol; in data set [3], 3.9 ± 0.27 kcal/mol.

“SAGGKTIEIEVPKEEAEKIAKKLADELLEEAKKKGKKVKVTITIKNKDGSTYKIVFDSNGKIVKIEKISAGG [r13_965_TrROS_Hall]”: the “folding stability dG unfold” value in data set [1] turned out to be 1.07 ± 0.061 kcal/mol; in data set [2], 3.34 ± 0.18 kcal/mol; in data set [3], 3.74 ± 0.063 kcal/mol.

For “SAGMPFPVRLVSVDPGARVLTIAAPNAKGPATLLPDGTLVVRAVLYDEDGRPVAEFTLTLPVDLPPGLASAG [r5_475_TrMRF]”, the “folding stability dG unfold” value in data set [1] amounted to 0.684 ± 0.1 kcal/mol; in data set [2], 2.07 ± 0.15 kcal/mol; in data set [3], 2.73 ± 0.045 kcal/mol.

Take “SAGGMTLEELKKAKIFAVLKNEKGEEYIVEAEIKEVEEKGEKLVLKVPYKIYNPNGELIAEGEFELELSAGG [r13_172_TrMRF]”: the “folding stability dG unfold” value in data set [1] is 2.17 ± 0.096 kcal/mol; in data set [2] it was 4.29 ± 0.22 kcal/mol; in data set [3], 4.69 ± 0.079 kcal/mol.

Regarding “SAGGSAGGSAGGIDPDDPGYTRVIPIIFVIPNGRVWKMSIWVYPNNNIMIEIEWIPAGDISAGGSAGGSAGG [r7_214_TrROS]”, the “folding stability dG unfold” value in data set [1] is 2.91 ± 0.16 kcal/mol; in data set [2] it was 4.74 ± 0.17 kcal/mol; in data set [3] it was 5.27 ± 0.19 kcal/mol.

“SAKKVIIFFRSPEELIDQIKEAASNGEPVEVMFNDPGGYYWHITIEVPPKNGKIKIDEIEPKPISDDDFSAG [r14_455_TrROS]”: the “folding stability dG unfold” value in data set [1] was found to be 1.63 ± 0.074 kcal/mol; in data set [2] it was 3.18 ± 0.31 kcal/mol; in data set [3] it was 4.01 ± 0.12 kcal/mol.

Turning to “SAELTPEQQALIDALRALFDARGWEVEVKFYPNPDKMEVTVRTPDPALEAEIRAALAALPLPVARVTEESAG [r14_284_JUSTAS]”, the “folding stability dG unfold” value in data set [1] was 0.941 ± 0.036 kcal/mol; in data set [2], 2.97 ± 0.059 kcal/mol; in data set [3], 3.423 ± 0.026 kcal/mol.

In the case of “SASITIPVDELKDFAEHFPGFNVGVNPETGMFQIFFPENGWMINIDIEVDPDDPDTIEIDIEIYPMPPNSAG [r14_604_TrROS]”, the “folding stability dG unfold” value in data set [1] is 1.78 ± 0.13 kcal/mol; in data set [2] it was 2.57 ± 0.37 kcal/mol; in data set [3] it was 2.96 ± 0.15 kcal/mol.

On to “SAGMTLTIKLPLKPGETVEVEVVSPQGVGATSEVLPDGSVKVTIERPSPSDPPPTLNITVYKKGTGEKVSAG [r14_39_JUSTAS]”, for which the “folding stability dG unfold” value was 0.857 ± 0.045 kcal/mol in data set [1], 2.04 ± 0.12 kcal/mol in data set [2] and 3.08 ± 0.077 kcal/mol in data set [3].

Take “SMIKPGEKIKKIKLKLENGEEVEATLVKNEDGSLVLFIKVDGEVYVFTFNPDGEIKIEKVSKEEAEKLLKSA [r9_1144_TrROS_Hall]”: the “folding stability dG unfold” value in data set [1] amounted to 2.05 ± 0.097 kcal/mol; in data set [2], 3.4 ± 0.15 kcal/mol; in data set [3], 3.79 ± 0.046 kcal/mol.

On to “SAGGSAGGSAGGGMIPVSTSETVVPGPSRLVRRTTTTYRDPVTGKLYTTSSTTVLPPAASAGGSAGGSAGGS [r10_190_JUSTAS]”, for which the “folding stability dG unfold” value in data set [1] was -0.396 ± 0.12 kcal/mol; in data set [2], 0.963 ± 0.045 kcal/mol; in data set [3], 1.44 ± 0.064 kcal/mol.

As for “SAGGSAGGSMYYLVKVKRKDGKEETFVFELPEPAKIEDLLPPELEVVEIKPFASKEEALKAAKSAGGSAGGS [r20_18_TrMRF]”, the “folding stability dG unfold” value in data set [1] was found to be 2.41 ± 0.052 kcal/mol; in data set [2], 4.78 ± 0.09 kcal/mol; in data set [3], 5.01 ± 0.059 kcal/mol.
